Some entries share one result that the patent states for a list of compounds.
Tested on: CHO K1 cells
Conditions: 5 μg/mL, black bars in FIG. 9, gated

## CCCCCCCCC=CCCCCCCCCOc1ccc(CNCCCCN)cc1OCCCCCCCCC=CCCCCCCCC.Cl.Cl [Compound 22, N^1-(3,4-Bis-octadec-9-enyloxy-benzyl)-butane-1,4-diamine, dihydrochloride salt]
  positive cells of the total cell population after DNA uptake experiment: > 94%
